# From PubChem BioAssay AID540256 (National Center for Advancing Translational Sciences (NCATS), 2011)
# The whole screen tested about 300,000 compounds, of which about 3,700 (1.2%) were called active. The shares of active, inactive and inconclusive entries below differ from those in the screen. Calls come from the whole dose curve; tested in HEK293 cells. Where the call is inconclusive, the potency comes from a doubtful curve fit.
# Assay: qHTS for Inhibitors of binding or entry into cells for Lassa Virus; note: nearly all actives have a fitted effect of over 50% in size
# Settings: Lassa virus pseudotype entry inhibition, cell reporter; activity change, negative = inhibition: at 37.9 µM (top of the series) unless noted
# % is set by controls: 0 for no effect and ±100 for the full control effect; potency is the fitted concentration of half-maximal effect.
Structure (SMILES),Potency,"activity change, negative = inhibition"
COCCCn1c(Cc2ccccc2)nnc1SCC(=O)N1CCCCC1,"inconclusive: 16.4 µM [inhibitor, partial curve, poor fit]",
C/C(=N\Nc1ccc2nncn2n1)c1cccs1,"inconclusive: 20 µM [activator, single point]",
c1ccc(-c2nc3n(c2-c2ccc4c(c2)OCO4)CCC3)nc1,active: 9.96 µM,
Nc1nc(-c2nc3ccccc3[nH]2)cs1,,inactive: -8.07%
FC(F)(F)c1cccc(NC(=S)NCC2COc3ccccc3O2)c1 (stereo not drawn),"inconclusive: 0.092 µM [inhibitor, full curve, poor fit]",
C=CCN1Cc2ccccc2Oc2ccc(Cl)cc2S1(=O)=O,"inconclusive: 28.1 µM [activator, partial curve, poor fit]",
CN1CCN(NC(=O)Nc2ccc(F)cc2)CC1,"inconclusive: 35.5 µM [activator, partial curve, poor fit]",
COc1cccc(OC)c1C(=O)Nc1cccc(-c2nc3ccccc3[nH]2)c1,,inactive: -2.62%
CC1CCCCN1S(=O)(=O)c1ccc(C(=O)Nc2nnc(-c3cccs3)o2)cc1 (stereo not drawn),"inconclusive: 31.6 µM [inhibitor, single point]",
O=C(CN1CCN(Cc2ccccc2Cl)CC1)N/N=C/c1cccs1,"inconclusive: 10 µM [inhibitor, partial curve, poor fit]",
Oc1ccc(Nc2ncnc3scc(-c4ccccc4)c23)cc1,"inconclusive: 0.398 µM [inhibitor, single point]",
COc1ccc(NC(=O)CN2CCN(S(=O)(=O)c3ccc(C(C)C)cc3)CC2)cc1OC,"inconclusive: 3.55 µM [inhibitor, partial curve, poor fit]",
CC(C)c1nn2c(=O)cc(COC(=O)c3ccccc3NC(=O)C3CCCCC3)nc2s1,,inactive: 2.5% [at 46.1 µM]
Clc1ccc(CSc2nnc(-c3ccncc3)o2)c(Cl)c1,"inconclusive: 1.03 µM [activator, full curve, poor fit]",
CCS(=O)(=O)c1ccc(OC)c(Nc2ncc(-c3cccc(OC)c3)o2)c1,"inconclusive: 19.9 µM [inhibitor, single point]",
CCc1ccc2oc(C(=O)Nc3cc(C)ccc3C)cc(=O)c2c1,,inactive: 12.4% [at 46.1 µM]
Cc1ccc2nc(N3C(=O)CNC3=S)sc2c1,"inconclusive: 12.6 µM [inhibitor, single point]",
Cc1cnc(-c2nnc(N(C)C(=O)C3CCCO3)s2)cn1 (stereo not drawn),"inconclusive: 10.3 µM [activator, partial curve]",
COc1cccc(NC(=O)Nc2cc(C(=O)O)ccc2C)c1,,inactive: 26.8% [at 46.1 µM]
CC1Nc2ccccc2C(=O)N1NS(=O)(=O)c1ccccc1 (stereo not drawn),"inconclusive: 7.08 µM [inhibitor, partial curve, poor fit]",
c1ccc(CCN(Cc2ccccc2)Cc2nc(C3CC3)no2)cc1,"inconclusive: 3.55 µM [inhibitor, partial curve]",
CC(Nc1ccc(Br)cc1)C(=O)Nc1cccc(S(=O)(=O)N2CCOCC2)c1 (stereo not drawn),,inactive: -1.42%

Structure (SMILES),Potency,"activity change, negative = inhibition"
CCOc1ccc(CC(=O)Nc2c(C(N)=O)oc3ccccc23)cc1OCC,"inconclusive: 0.447 µM [activator, partial curve, poor fit]",
COc1ccc(C(C(=O)NC2CCCCC2)N(C(=O)c2ccco2)c2ccccc2OC)cc1 (stereo not drawn),"inconclusive: 7.08 µM [inhibitor, partial curve, poor fit]",
O=C(c1ccc(NS(=O)(=O)c2cccc(C(F)(F)F)c2)cc1)N1CCCC1,,inactive: -11.6%
CCN=C1S/C(=C\c2cc(OCC)c(O)cc2Br)C(=O)N1CC,"inconclusive: 7.94 µM [inhibitor, partial curve, poor fit]",
Fc1ccc(-c2csc3ncnc(N4CCN(c5ccccc5)CC4)c23)cc1,"inconclusive: 35.5 µM [inhibitor, single point]",
CCOC(=O)c1c(NC(=S)NC(=O)c2cnn(CC)c2)sc2c1CCC(C)C2 (stereo not drawn),"inconclusive: 0.562 µM [inhibitor, full curve]",
COc1ccc(CCNC(=O)c2ccc3c(c2)OCO3)cc1,"inconclusive: 1.58 µM [activator, full curve, poor fit]",
Cc1ccc(-c2cc(-c3cccc(F)c3)n[nH]2)c(O)c1,"inconclusive: 0.631 µM [activator, partial curve, poor fit]",
CCC(C(=O)Nc1nc(C)c(C)s1)c1ccccc1 (stereo not drawn),,inactive: 1.16%
Clc1ccc(C(CCN2CCCC2)Cc2ccccc2)cc1 (stereo not drawn),"inconclusive: 35.5 µM [inhibitor, single point]",
O=C(Nc1n[nH]c2cc(-c3cc(F)ccc3F)ccc12)C1CC1,active: 25 µM,
Clc1cccc(CNc2cc(-c3ccccc3)nc3nncn23)c1,"inconclusive: 35.5 µM [inhibitor, single point]",
Cc1cc(-c2ccc(C(C)C)c(S(=O)(=O)N3CCN(c4ccccc4)CC3)c2)on1,"inconclusive: 1.12 µM [inhibitor, partial curve, poor fit]",
CC(SCC(=O)Nc1ccccc1Br)c1nc2ccccc2c(=O)[nH]1 (stereo not drawn),"inconclusive: 6.31 µM [activator, partial curve, poor fit]",
O=C(CSc1ncn[nH]1)Nc1nc(-c2ccccc2)ns1,"inconclusive: 0.0046 µM [activator, full curve, poor fit]",
Cc1cc(Cl)ccc1N=C1N=C(N)c2ccccc21,"inconclusive: 20.6 µM [inhibitor, partial curve, poor fit]",
Cc1csc(SCC(=O)Nc2cc(C(N)=O)cc(C(N)=O)c2)n1,"inconclusive: 7.94 µM [activator, partial curve, poor fit]",
O=C(CSc1c(Cl)cccc1Cl)N1CCC(c2nc3ccccc3s2)CC1,,inactive: -16.9%
CC(CC(=O)Nc1cccc(Cl)c1)c1ccccc1 (stereo not drawn),"inconclusive: 35.5 µM [inhibitor, single point]",
N#CCCS(=O)(=O)c1ccc(N)cc1,,inactive: 2.77%
COC(=O)C1=CN(c2ccc(Cl)cc2)C=C(C(=O)OC)C1c1ccc([N+](=O)[O-])cc1,"inconclusive: 1.26 µM [inhibitor, full curve, poor fit]",

# Complete entries, quoted from the list.
# N#CCCS(=O)(=O)c1ccc(N)cc1 in the list: activity change, negative = inhibition: inactive: 2.77%
# Clc1ccc(C(CCN2CCCC2)Cc2ccccc2)cc1 (stereo not drawn) in the list: Potency: inconclusive: 35.5 µM [inhibitor, single point]
# COc1ccc(CCNC(=O)c2ccc3c(c2)OCO3)cc1 in the list: Potency: inconclusive: 1.58 µM [activator, full curve, poor fit]
